In the supplement of paper PMC7024190:
Where a name gives a salt, the structure may show the parent alone. The list shows a part of the results. Single values are uncertain here, since repeats match poorly.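 A first-round screen of about ten thousand compounds sought those raising reporter output, using human embryonic kidney cells briefly transfected with a plasmid carrying a Renilla luciferase gene driven by the HSV-TK promoter.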

system: HEK 293FT; assay: log relative Renilla luciferase luminescence (reporter expression vs reference, reference not stated) (log (base not stated)); higher = higher recombinant reporter expression; conditions: 10 µM; time after transfection 48 h
Experimental: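 HEK 293FT cells transiently transfected with pRL-TK (Renilla luciferase) were treated with compounds at 10 uM and luminescence was read about 42 h later. Values are log relative Renilla luminescence (log base and reference not stated). Single-pass screen; 2080 natural products library.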

Q: Which log does the source give for `OCc1ccccc1O[C@@H]1O[C@H](CO)[C@@H](O)[C@H](O)[C@H]1O` [Salicin] here?
A: The log was 0.0875.

Q: `C[C@H]1C(=O)CC[C@@H]2[C@]1(C)CC[C@H]1[C@@]2(C)CC[C@@]2(C)[C@@H]3CC(C)(C)CC[C@]3(C)CC[C@]12C` [Friedelin] was tested. Which log did it give?
A: The log was -0.0313.

Q: `O=c1c(O[C@@H]2O[C@H](CO)[C@@H](O)[C@H](O)[C@H]2O)c(-c2ccc(O)cc2)oc2cc(O)cc(O)c12` [Astragalin] was tested. Which log did it give?
A: The log was -0.198.

Q: How did the log turn out when `C/C=C(/C)C(=O)O[C@H]1c2cc3c(c(OC)c2-c2c(cc(OC)c(OC)c2OC)C[C@H](C)[C@@H]1C)OCO3` [Angeloylisogomisin O] was run?
A: Its log is -0.0197.

Q: With `C=C1[C@H](OC(=O)C(C)C)[C@@H](O)[C@@H](OC(=O)c2cccnc2)C(C)(C)/C=C\[C@H](C)[C@H](OC(C)=O)[C@@]2(O)C[C@@](C)(OC(C)=O)[C@H](OC(=O)c3ccccc3)[C@@H]2[C@H]1OC(C)=O` as the compound, how does the log read?
A: The log was -0.184.

Q: How did the log turn out when `COc1cc(-c2oc3c(O)c(OC)cc(OC)c3c(=O)c2OC)cc(OC)c1OC` [8-Hydroxy-3,5,7,3',4',5'-hexamethoxyflavone] was run?
A: The log was -0.127.

Q: Which log does the source give for `CC1(C)CC[C@]2(C)CC[C@]3(C)C(=CC[C@@H]4[C@@]5(C)CC[C@H](O)C(C)(C)[C@@H]5CC[C@]43C)[C@@H]2C1` [beta-Amyrin] here?
A: The log was -0.163.

Q: How did the log turn out when `COC(=O)c1c(O)cccc1O[C@@H]1O[C@H](CO)[C@@H](O)[C@H](O)[C@H]1O` [6-(beta-D-glucopyranosyloxy)-Salicylic acid methyl ester] was run?
A: Its log is -0.00447.

Q: For `C=C(C)[C@@H]1CC[C@]2(C)[C@H](CC[C@@H]3[C@@H]([C@]4(C)CC[C@H](C(C)(C)O)O4)CC[C@]32C)[C@@]1(C)CCC(=O)O` [Shoreic acid], which log is on record?
A: The log was -0.112.

Q: `CC1(C)[C@@H](O)CC[C@@]2(C)[C@H]1CC[C@@]1(C)CC3=CC[C@H]4C(C)(C)[C@@H](O)CC[C@]4(C)[C@H]3CC[C@@H]12` [Serratenediol] was tested. Which log did it give?
A: The log was -0.607.

Q: `COC(=O)C1=CO[C@@H](C)[C@H]2C[N+]3([O-])CCc4c([nH]c5ccccc45)[C@@H]3C[C@H]12` (stereo partly drawn) [4,R-ajmalicine N-oxide] was tested. Which log did it give?
A: The log was -0.174.

Q: How did the log turn out when `O=C(O)/C=C/c1ccccc1` [Cinnamic acid] was run?
A: The log was -0.157.

Q: How did the log turn out when `C=C1C(OC(C)=O)C(OC(C)=O)C(OC(=O)c2cccnc2)C(C)(C)C=CC(C)C(OC(C)=O)C2(O)CC(C)(OC(C)=O)C(OC(=O)c3ccccc3)C2C1OC(C)=O` (stereo not drawn) [Pepluanin A] was run?
A: Its log is 0.0541.

Q: With `CC[C@@H](CC[C@@H](C)[C@H]1CC[C@H]2[C@@H]3C(=O)C=C4C[C@@H](O)CC[C@]4(C)[C@H]3CC[C@]12C)C(C)C` [3beta-Hydroxyporiferast-5-en-7-one] as the compound, how does the log read?
A: The log was 0.075.

Q: Which log does the source give for `O=c1ccn([C@@H]2O[C@H](CO)[C@@H](O)[C@H]2O)c(=O)[nH]1` [Uridine] here?
A: The log was 0.015.

Q: For `Oc1ccc([C@H]2Oc3cc(O)cc(O)c3C[C@@H]2O)cc1` [(+)-Afzelechin], which log is on record?
A: Its log is -0.244.

Q: How did the log turn out when `C[C@H]1[C@H](C)CC[C@]2(C(=O)O[C@@H]3O[C@H](CO)[C@@H](O)[C@H](O)[C@H]3O)CC[C@]3(C(=O)O)C(=CC[C@@H]4[C@@]5(C)CC[C@H](O[C@@H]6O[C@H](C)[C@@H](O)[C@H](O)[C@H]6O)C(C)(C)[C@@H]5CC[C@]43C)[C@H]12` was run?
A: The log was -0.0297.

Q: Which log does the source give for `CCCCCCCCC/C=C/CCC[C@@H](O)[C@@H](O)[C@H](CO[C@@H]1O[C@H](CO)[C@@H](O)[C@H](O)[C@H]1O)NC(=O)[C@H](O)CCCCCCCCCCCCCCCCCCCCCC` [Momor-cerebroside I] here?
A: The log was -0.108.

Q: For `CC(=O)OC[C@H]1O[C@@H](Oc2c(-c3ccc(O)cc3)oc3cc(O[C@@H]4O[C@@H](C)[C@H](O)[C@@H](O)[C@H]4O)cc(O)c3c2=O)[C@H](O)[C@@H](O)[C@@H]1O` [Kaempferol 3-O-(6''-O-acetyl)glucoside-7-O-rhamnoside], which log is on record?
A: Its log is -0.0495.

Q: `COC(=O)C1=CO[C@@H](C)[C@H]2C[n+]3ccc4c([nH]c5ccccc54)c3C[C@H]12` [Serpentine hydrochloride] was tested. Which log did it give?
A: The log was -0.334.

Q: For `COC(=O)C1=CO[C@@H](C)[C@@H]2CN3CCc4c([nH]c5ccc(OC)cc45)[C@@H]3C[C@H]12` [Aricine], which log is on record?
A: The log was 0.152.

Q: Which log does the source give for `CC1(O)CC(CC2(C)OC2COc2ccc3ccc(=O)oc3c2)OC1=O` (stereo not drawn) [Excavatin M] here?
A: The log was -0.259.

Q: How did the log turn out when `CC(C)=CCC/C(C)=C/COc1c2occc2cc2ccc(=O)oc12` [8-Geranyloxypsoralen] was run?
A: Its log is -0.0581.
